Measured values: PMC11045757, “Group 3 medulloblastoma transcriptional networks collapse under domain specific EP300/CBP inhibition” (Nature Communications, 2024)
Several values for one entry are separate records, joined by “and”; a condition that tells them apart may be missing. Equal values may be shown once. The source gives many values for each of these; only a part stands here.

System: HDMB03 (HDMBO3) group 3 medulloblastoma cells
Experiment: CellTiter-Glo dose-response growth assay
Assay type: cell-based
Settings: HDMBO3, log10[compound], M = -5.73
Procedure: CellTiter-Glo assay was performed as per the manufacturer’s instructions, at the noted timepoint after compound treatment or plating. For Kelly, TE617T, RhJT, NCIH2122, NCIH650 and 143B, 500 cells were plated in normal growth media per well in a 384-well plate (Corning). HDMB03 and MB002 cells were plated in growth media at 500 cells/well in a 384-well plate. […] Cells were incubated for the noted timepoints prior to performing CellTiter-Glo assay as per the manufacturer’s instructions, and reading plates on an Envision 2104 microplate reader.

Q: With `CO[C@H]1CC[C@H](n2c([C@@H]3CCCC(=O)N3c3ccc(F)c(F)c3)nc3cc(-c4c(C)noc4C)ccc32)CC1` [CCS1477] as the compound, how does the “normalized growth (fraction of control), replicate values” read?
A: 0.044 and 0.04 and 0.041 and 0.022 and 0.023 and 0.035 and 0.031
